From the supplement of paper PMC12823440, “Inhibitors supercharge kinase turnover through native proteolytic circuits” (Nature, 2025)
Counter-ions that a name gives are not always drawn. Some of the results follow. Hit calls seldom repeat between salt and free forms of one compound.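 In K562 cells expressing nanoluciferase-fused kinases, luminescence was recorded at 4 h intervals between 2 and 18 h, normalized as percent of control with DMSO at 100% and a positive control at 0%. A significant (2 sigma) signal drop marks a time point as decreased. The authors' rule for a hit is not shown and takes in more than the number of time points.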

Chains of the proteins cited; added tags and fusions are not shown. Lines headed by an entry give the natural chain unless they say otherwise; changes in a name come on top.
UniProt O15530: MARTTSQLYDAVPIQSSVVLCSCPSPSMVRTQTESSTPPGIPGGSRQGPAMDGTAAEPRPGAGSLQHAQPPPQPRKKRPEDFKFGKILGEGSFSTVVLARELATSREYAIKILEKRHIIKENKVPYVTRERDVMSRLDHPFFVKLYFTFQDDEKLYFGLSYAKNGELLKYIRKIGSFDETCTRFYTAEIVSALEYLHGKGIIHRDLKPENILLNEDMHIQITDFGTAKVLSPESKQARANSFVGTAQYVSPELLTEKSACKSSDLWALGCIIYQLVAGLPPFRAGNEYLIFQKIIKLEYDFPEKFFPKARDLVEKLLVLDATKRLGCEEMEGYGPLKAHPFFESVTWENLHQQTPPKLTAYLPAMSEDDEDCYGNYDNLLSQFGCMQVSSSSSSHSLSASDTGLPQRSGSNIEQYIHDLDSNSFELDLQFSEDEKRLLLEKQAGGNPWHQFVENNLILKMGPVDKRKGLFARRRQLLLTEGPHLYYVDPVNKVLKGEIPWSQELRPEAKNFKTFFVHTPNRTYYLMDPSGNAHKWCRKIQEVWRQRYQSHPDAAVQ
UniProt Q9UBF8: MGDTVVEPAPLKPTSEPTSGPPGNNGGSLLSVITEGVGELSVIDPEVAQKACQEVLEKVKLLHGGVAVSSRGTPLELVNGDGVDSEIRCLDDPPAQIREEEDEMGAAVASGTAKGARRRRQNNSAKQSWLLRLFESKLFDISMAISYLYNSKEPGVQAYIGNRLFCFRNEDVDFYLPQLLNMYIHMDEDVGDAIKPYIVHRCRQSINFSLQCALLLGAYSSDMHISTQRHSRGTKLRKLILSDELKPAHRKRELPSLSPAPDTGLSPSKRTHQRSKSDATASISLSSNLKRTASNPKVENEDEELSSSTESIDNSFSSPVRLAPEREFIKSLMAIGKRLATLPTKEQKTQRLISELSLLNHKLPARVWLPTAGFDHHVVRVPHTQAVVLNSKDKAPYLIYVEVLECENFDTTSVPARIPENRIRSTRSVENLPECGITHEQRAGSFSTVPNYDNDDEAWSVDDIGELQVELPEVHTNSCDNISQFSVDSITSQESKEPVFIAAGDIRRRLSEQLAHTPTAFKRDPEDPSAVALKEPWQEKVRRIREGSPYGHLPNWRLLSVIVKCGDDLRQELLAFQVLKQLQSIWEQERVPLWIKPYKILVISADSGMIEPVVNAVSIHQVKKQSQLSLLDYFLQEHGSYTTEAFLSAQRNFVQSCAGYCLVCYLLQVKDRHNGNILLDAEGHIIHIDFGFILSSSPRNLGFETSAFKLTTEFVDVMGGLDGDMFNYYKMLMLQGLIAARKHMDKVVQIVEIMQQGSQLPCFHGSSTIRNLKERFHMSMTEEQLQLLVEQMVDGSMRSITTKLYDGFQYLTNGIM
UniProt P53350, whole entry: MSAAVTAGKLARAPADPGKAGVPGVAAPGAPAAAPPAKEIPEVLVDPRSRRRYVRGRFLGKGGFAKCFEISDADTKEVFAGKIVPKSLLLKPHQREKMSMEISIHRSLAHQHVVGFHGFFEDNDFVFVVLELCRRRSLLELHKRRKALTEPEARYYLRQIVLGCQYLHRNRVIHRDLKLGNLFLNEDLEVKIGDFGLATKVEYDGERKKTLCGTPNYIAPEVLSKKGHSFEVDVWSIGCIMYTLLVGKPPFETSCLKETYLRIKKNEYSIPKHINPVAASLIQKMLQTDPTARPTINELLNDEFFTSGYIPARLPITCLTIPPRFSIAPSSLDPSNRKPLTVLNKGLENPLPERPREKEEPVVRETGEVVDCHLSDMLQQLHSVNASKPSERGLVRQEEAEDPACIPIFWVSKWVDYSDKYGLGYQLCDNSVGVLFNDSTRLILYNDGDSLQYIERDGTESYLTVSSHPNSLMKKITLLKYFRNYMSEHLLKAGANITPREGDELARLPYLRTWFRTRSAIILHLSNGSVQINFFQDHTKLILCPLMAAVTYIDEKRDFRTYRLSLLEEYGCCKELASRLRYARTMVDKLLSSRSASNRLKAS
UniProt Q13131: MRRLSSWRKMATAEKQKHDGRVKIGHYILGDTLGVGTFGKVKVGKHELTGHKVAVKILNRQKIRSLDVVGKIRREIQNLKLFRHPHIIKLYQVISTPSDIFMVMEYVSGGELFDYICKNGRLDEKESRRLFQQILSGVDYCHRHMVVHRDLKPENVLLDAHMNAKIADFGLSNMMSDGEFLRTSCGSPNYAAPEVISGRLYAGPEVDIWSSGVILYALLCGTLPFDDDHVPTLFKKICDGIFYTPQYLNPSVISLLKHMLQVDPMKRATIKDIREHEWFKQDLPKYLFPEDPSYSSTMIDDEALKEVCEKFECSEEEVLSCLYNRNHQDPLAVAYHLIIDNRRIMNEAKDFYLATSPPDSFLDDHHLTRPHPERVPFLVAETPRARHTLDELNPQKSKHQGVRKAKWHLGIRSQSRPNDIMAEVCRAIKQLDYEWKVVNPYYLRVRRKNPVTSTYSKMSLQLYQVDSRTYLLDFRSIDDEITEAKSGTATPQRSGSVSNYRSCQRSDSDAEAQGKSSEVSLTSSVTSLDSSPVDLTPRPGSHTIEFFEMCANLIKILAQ
UniProt Q05397, whole entry, looked up: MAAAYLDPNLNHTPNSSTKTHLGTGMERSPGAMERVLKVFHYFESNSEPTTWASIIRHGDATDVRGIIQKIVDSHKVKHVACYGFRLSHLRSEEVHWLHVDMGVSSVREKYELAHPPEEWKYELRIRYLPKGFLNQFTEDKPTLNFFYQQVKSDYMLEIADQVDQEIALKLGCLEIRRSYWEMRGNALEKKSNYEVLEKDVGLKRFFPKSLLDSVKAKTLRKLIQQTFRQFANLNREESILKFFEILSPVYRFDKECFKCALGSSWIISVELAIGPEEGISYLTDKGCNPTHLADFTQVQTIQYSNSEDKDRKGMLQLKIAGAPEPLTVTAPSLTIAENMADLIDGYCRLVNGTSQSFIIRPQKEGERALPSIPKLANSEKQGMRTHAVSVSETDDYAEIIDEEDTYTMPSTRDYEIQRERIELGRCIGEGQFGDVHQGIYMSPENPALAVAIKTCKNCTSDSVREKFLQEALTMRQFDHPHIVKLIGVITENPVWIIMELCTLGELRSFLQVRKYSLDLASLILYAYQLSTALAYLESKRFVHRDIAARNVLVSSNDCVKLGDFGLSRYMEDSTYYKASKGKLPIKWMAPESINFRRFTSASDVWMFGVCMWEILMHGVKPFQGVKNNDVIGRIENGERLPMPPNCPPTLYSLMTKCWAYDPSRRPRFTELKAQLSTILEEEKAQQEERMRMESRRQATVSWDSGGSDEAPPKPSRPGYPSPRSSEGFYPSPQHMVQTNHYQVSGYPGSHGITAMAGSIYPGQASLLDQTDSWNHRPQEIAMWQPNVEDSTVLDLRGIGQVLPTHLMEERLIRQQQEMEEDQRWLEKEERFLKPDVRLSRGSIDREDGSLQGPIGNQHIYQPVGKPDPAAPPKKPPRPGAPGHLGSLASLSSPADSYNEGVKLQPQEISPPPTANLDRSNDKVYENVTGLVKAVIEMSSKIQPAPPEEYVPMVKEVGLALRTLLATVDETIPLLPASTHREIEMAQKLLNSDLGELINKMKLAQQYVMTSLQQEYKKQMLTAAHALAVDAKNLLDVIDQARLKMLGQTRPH
UniProt Q14289, whole entry, looked up: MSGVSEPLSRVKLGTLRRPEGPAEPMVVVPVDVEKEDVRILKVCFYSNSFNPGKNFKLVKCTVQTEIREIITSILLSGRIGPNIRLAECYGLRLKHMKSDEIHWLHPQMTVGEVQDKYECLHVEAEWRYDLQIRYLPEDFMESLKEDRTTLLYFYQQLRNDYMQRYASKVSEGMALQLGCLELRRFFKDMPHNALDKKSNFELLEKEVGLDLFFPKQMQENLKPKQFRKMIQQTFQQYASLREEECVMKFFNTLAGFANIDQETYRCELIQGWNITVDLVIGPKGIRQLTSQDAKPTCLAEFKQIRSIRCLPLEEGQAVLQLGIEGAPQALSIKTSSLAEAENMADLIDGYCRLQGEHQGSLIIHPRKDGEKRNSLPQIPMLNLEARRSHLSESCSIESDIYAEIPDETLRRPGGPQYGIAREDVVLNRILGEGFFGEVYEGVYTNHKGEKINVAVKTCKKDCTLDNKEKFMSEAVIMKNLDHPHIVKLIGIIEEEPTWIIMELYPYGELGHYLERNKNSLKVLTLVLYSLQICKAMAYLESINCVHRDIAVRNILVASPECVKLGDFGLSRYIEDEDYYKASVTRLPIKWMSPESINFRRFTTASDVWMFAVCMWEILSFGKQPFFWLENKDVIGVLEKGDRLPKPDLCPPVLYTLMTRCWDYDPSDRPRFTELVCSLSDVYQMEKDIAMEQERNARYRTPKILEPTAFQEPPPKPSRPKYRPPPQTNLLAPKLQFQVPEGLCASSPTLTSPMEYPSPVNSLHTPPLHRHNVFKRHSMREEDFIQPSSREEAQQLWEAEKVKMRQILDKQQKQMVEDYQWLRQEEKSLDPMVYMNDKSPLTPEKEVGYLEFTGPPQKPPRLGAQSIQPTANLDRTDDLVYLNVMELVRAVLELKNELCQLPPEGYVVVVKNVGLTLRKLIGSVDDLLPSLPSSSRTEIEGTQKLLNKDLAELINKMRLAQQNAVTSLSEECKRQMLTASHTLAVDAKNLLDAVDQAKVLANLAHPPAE

Experiments:
Assay in all cases: kinase-Nluc reporter destabilization hit call (1 = scored as downregulated) (binary); higher = compound decreases kinase abundance
Conditions in all cases: K562; 2-18 h
PDPK1 = PDPK1 (UniProt O15530)
PIK4CA = PIK4CA (UniProt P42356)
PIK4CB = PIK4CB (UniProt Q9UBF8)
PLK1 = PLK1 (UniProt P53350)
PRKAA1 = PRKAA1 (UniProt Q13131)
PRKCA = PRKCA (UniProt P17252)
PTK2 = PTK2 (UniProt Q05397)
PTK2B = PTK2B (UniProt Q14289)
RAF1 = RAF1 (UniProt P04049)
[1] = target: RAF1_S257L (clone: RAF1_mut) (UniProt P04049)

Measured: kinase-Nluc reporter destabilization hit call

O=C(NOCC(O)CO)c1cc(Br)c(F)c(F)c1Nc1ccc(I)cc1F (stereo not given) (2.5 µM)
inactive: PDPK1 = 0 | PIK4CA 0 | PIK4CB 0 | PLK1 = 0 | PRKAA1 = 0 | PRKCA 0 | PTK2 = 0 | PTK2B 0 | RAF1 = 0 | [1] 0

S=C(SSC(=S)N1CCOCC1)N1CCOCC1 (10 µM)
inactive: PDPK1 = 0 | PIK4CA 0 | PIK4CB 0 | PLK1 = 0 | PRKAA1 = 0 | PRKCA 0 | PTK2 = 0 | PTK2B 0 | RAF1 = 0 | [1] 0

Cc1[nH]c(/C=C2\C(=O)Nc3ccccc32)c(C)c1CCC(=O)O [(Z)-Orantinib] (10 µM)
inactive: PDPK1 = 0 | PIK4CA 0 | PIK4CB 0 | PLK1 = 0 | PRKAA1 = 0 | PRKCA 0 | PTK2 = 0 | PTK2B 0 | RAF1 = 0 | [1] 0

CCOc1ccc2cc(-c3nn(CC4CCN(C)CC4)c4ncnc(N)c34)ccc2n1 (10 µM)
inactive: PDPK1 = 0 | PIK4CA 0 | PIK4CB 0 | PLK1 = 0 | PRKAA1 = 0 | PRKCA 0 | PTK2 = 0 | PTK2B 0 | RAF1 = 0 | [1] 0

Cc1ccc(C(=O)Nc2ccc(Oc3cc4cnn(C)c4cc3-c3cn[nH]c3)c(F)c2)c(=O)n1-c1ccc(F)cc1 [Merestinib dihydrochloride] (2.5 µM)
inactive: PDPK1 = 0 | PIK4CA 0 | PIK4CB 0 | PLK1 = 0 | PRKAA1 = 0 | PRKCA 0 | PTK2 = 0 | PTK2B 0 | RAF1 = 0 | [1] 0

C=CC(=O)Nc1cccc(Nc2nc(Nc3ccc(NC4CN(CCF)C4)cc3OC)ncc2C(F)(F)F)c1 (2.5 µM)
inactive: PDPK1 = 0 | PIK4CA 0 | PIK4CB 0 | PLK1 = 0 | PRKAA1 = 0 | PRKCA 0 | PTK2 = 0 | PTK2B 0 | RAF1 = 0 | [1] 0

CN(C)CCSSCCNC(=O)C1CCN(C(=O)CSc2ccc(Cl)cc2)CC1 (10 µM)
inactive: PDPK1 = 0 | PIK4CA 0 | PIK4CB 0 | PLK1 = 0 | PRKAA1 = 0 | PRKCA 0 | PTK2 = 0 | PTK2B 0 | RAF1 = 0 | [1] 0

CC(=O)c1c(C)cc2cccc(O)c2c1O [Nepodin] (10 µM)
inactive: PDPK1 = 0 | PIK4CA 0 | PIK4CB 0 | PLK1 = 0 | PRKAA1 = 0 | PRKCA 0 | PTK2 = 0 | PTK2B 0 | RAF1 = 0 | [1] 0

O=S(=O)(NCCCN1c2ccccc2CCc2ccc(Cl)cc21)c1ccc(OC(F)(F)F)cc1 (2.5 µM)
inactive: PDPK1 = 0 | PIK4CA 0 | PIK4CB 0 | PLK1 = 0 | PRKAA1 = 0 | PRKCA 0 | PTK2 = 0 | PTK2B 0 | RAF1 = 0 | [1] 0

Cn1cnc(Cn2ccc3ccc(CNCc4[nH]c5ccccc5c4[C@H]4NC(=O)c5ccc(O)cc54)cc32)c1 (10 µM)
inactive: PDPK1 = 0 | PIK4CA 0 | PIK4CB 0 | PLK1 = 0 | PRKAA1 = 0 | PRKCA 0 | PTK2 = 0 | PTK2B 0 | RAF1 = 0 | [1] 0

Cn1cnc2c(F)c(Nc3ccc(Br)cc3Cl)c(C(=O)NOCCO)cc21 [Selumetinib (sulfate)] (10 µM)
inactive: PDPK1 = 0 | PIK4CA 0 | PIK4CB 0 | PLK1 = 0 | PRKAA1 = 0 | PRKCA 0 | PTK2 = 0 | PTK2B 0 | RAF1 = 0 | [1] 0

O=C(O)CCC(=O)Nc1ccc(Br)cn1 [Bikinin] (10 µM)
inactive: PDPK1 = 0 | PIK4CA 0 | PIK4CB 0 | PLK1 = 0 | PRKAA1 = 0 | PRKCA 0 | PTK2 = 0 | PTK2B 0 | RAF1 = 0 | [1] 0

Oc1cc2c(cc1O)C(Cc1cccc3ccccc13)NCC2 (stereo not given) (10 µM)
inactive: PDPK1 = 0 | PIK4CA 0 | PIK4CB 0 | PLK1 = 0 | PRKAA1 = 0 | PRKCA 0 | PTK2 = 0 | PTK2B 0 | RAF1 = 0 | [1] 0

O=c1[nH]c(=O)n([C@@H]2O[C@H](CO)[C@@H](O)[C@@H]2O)cc1/C=C/Br [Sorivudine] (10 µM)
inactive: PDPK1 = 0 | PIK4CA 0 | PIK4CB 0 | PLK1 = 0 | PRKAA1 = 0 | PRKCA 0 | PTK2 = 0 | PTK2B 0 | RAF1 = 0 | [1] 0

C=CC(=O)Nc1cc(C)ccc1Nc1nc(Nc2cc(OC)ncc2C)ncc1C(F)(F)F (10 µM)
inactive: PDPK1 = 0 | PIK4CA 0 | PIK4CB 0 | PLK1 = 0 | PRKAA1 = 0 | PRKCA 0 | PTK2 = 0 | PTK2B 0 | RAF1 = 0 | [1] 0

Cn1nccc1Nc1nccc(-c2ccn([C@H](CO)c3ccc(Cl)c(F)c3)c(=O)c2)n1 [Ravoxertinib] (10 µM)
inactive: PDPK1 = 0 | PIK4CA 0 | PIK4CB 0 | PLK1 = 0 | PRKAA1 = 0 | PRKCA 0 | PTK2 = 0 | PTK2B 0 | RAF1 = 0 | [1] 0

C[C@]1(O)CCN(c2nc(N3C[C@H](O)[C@@H](O)C3)cc(C(F)(F)F)c2C#N)C1 (10 µM)
inactive: PDPK1 = 0 | PIK4CA 0 | PIK4CB 0 | PLK1 = 0 | PRKAA1 = 0 | PRKCA 0 | PTK2 = 0 | PTK2B 0 | RAF1 = 0 | [1] 0

O=C1N[C@@H](Cc2c[nH]c3ccccc23)C(=O)N2CCC[C@@H]12 [Brevianamide F] (10 µM)
inactive: PDPK1 = 0 | PIK4CA 0 | PIK4CB 0 | PLK1 = 0 | PRKAA1 = 0 | PRKCA 0 | PTK2 = 0 | PTK2B 0 | RAF1 = 0 | [1] 0

NC(=O)c1nc(Nc2ccccc2)sc1NC(=O)C1CCCCC1 (10 µM)
inactive: PDPK1 = 0 | PIK4CA 0 | PIK4CB 0 | PLK1 = 0 | PRKAA1 = 0 | PRKCA 0 | PTK2 = 0 | PTK2B 0 | RAF1 = 0 | [1] 0

NCCNS(=O)(=O)c1cccc2c(Cl)cccc12 [A-3 (hydrochloride)] (10 µM)
inactive: PDPK1 = 0 | PIK4CA 0 | PIK4CB 0 | PLK1 = 0 | PRKAA1 = 0 | PRKCA 0 | PTK2 = 0 | PTK2B 0 | RAF1 = 0 | [1] 0

Nc1nc2ccc(Cl)cc2c2nc(-c3ccco3)nn12 (10 µM)
inactive: PDPK1 = 0 | PIK4CA 0 | PIK4CB 0 | PLK1 = 0 | PRKAA1 = 0 | PRKCA 0 | PTK2 = 0 | PTK2B 0 | RAF1 = 0 | [1] 0

Cc1ccc(C(=O)Nc2ccc(Oc3cc4cnn(C)c4cc3-c3cn[nH]c3)c(F)c2)c(=O)n1-c1ccc(F)cc1 [Merestinib] (2.5 µM)
inactive: PDPK1 = 0 | PIK4CA 0 | PIK4CB 0 | PLK1 = 0 | PRKAA1 = 0 | PRKCA 0 | PTK2 = 0 | PTK2B 0 | RAF1 = 0 | [1] 0

CC#CC(=O)N1CC[C@@H](n2c(=O)n(-c3ccc(Oc4ccccc4)cc3)c3c(N)ncnc32)C1 [Tirabrutinib] (10 µM)
inactive: PDPK1 = 0 | PIK4CA 0 | PIK4CB 0 | PLK1 = 0 | PRKAA1 = 0 | PRKCA 0 | PTK2 = 0 | PTK2B 0 | RAF1 = 0 | [1] 0

COc1cc(/C=C/C(=O)NCC(O)c2ccc(O)cc2)ccc1O (stereo not given) [N-Feruloyloctopamine] (2.5 µM)
inactive: PDPK1 = 0 | PIK4CA 0 | PIK4CB 0 | PLK1 = 0 | PRKAA1 = 0 | PRKCA 0 | PTK2 = 0 | PTK2B 0 | RAF1 = 0 | [1] 0

Random excerpt: 2 entries already listed.
C=CC(=O)Nc1cccc(Nc2nc(Nc3ccc(NC4CN(CCF)C4)cc3OC)ncc2C(F)(F)F)c1 (2.5 µM)
inactive: PDPK1 = 0 | PIK4CA 0 | PIK4CB 0 | PLK1 = 0 | PRKAA1 = 0 | PRKCA 0 | PTK2 = 0 | PTK2B 0 | RAF1 = 0 | [1] 0

NCCNS(=O)(=O)c1cccc2c(Cl)cccc12 [A-3 (hydrochloride)] (10 µM)
inactive: PDPK1 = 0 | PIK4CA 0 | PIK4CB 0 | PLK1 = 0 | PRKAA1 = 0 | PRKCA 0 | PTK2 = 0 | PTK2B 0 | RAF1 = 0 | [1] 0

Carrying on.

CC[C@@H](Oc1nc(Oc2cc(C)cc(-c3cccc(CN)c3)c2)c(F)cc1F)C(=O)O (10 µM)
inactive: PDPK1 = 0 | PIK4CA 0 | PIK4CB 0 | PLK1 = 0 | PRKAA1 = 0 | PRKCA 0 | PTK2 = 0 | PTK2B 0 | RAF1 = 0 | [1] 0

CS(=O)(=O)Nc1cc(-c2ccc3ncnc(Nc4ccc(F)c(Cl)c4)c3c2)cnc1Cl (2.5 µM)
inactive: PDPK1 = 0 | PIK4CA 0 | PIK4CB 0 | PLK1 = 0 | PRKAA1 = 0 | PRKCA 0 | PTK2 = 0 | PTK2B 0 | RAF1 = 0 | [1] 0

C[C@@]1(c2ncncc2F)NC(=O)c2cc(-c3cn[nH]c3)ccc21 (10 µM)
inactive: PDPK1 = 0 | PIK4CA 0 | PIK4CB 0 | PLK1 = 0 | PRKAA1 = 0 | PRKCA 0 | PTK2 = 0 | PTK2B 0 | RAF1 = 0 | [1] 0

COc1ccc(OC)c(C2C(C#N)=C(N)Oc3n[nH]c(-c4ccc5ccccc5c4)c32)c1 (stereo not given) (10 µM)
inactive: PDPK1 = 0 | PIK4CA 0 | PIK4CB 0 | PLK1 = 0 | PRKAA1 = 0 | PRKCA 0 | PTK2 = 0 | PTK2B 0 | RAF1 = 0 | [1] 0
